Reference: patent publication US10221137B2, “Herbicidal phenylpyridines” (BASF SE, priority 2015, dated 2019)
Some results were stated once for a whole list of compounds, not compound by compound.

What was measured:
Assay in all cases: greenhouse experiment, post-emergence treatment
Format in all cases: in vivo
Conditions in all cases: application rate of 16 g/ha, post-emergence method; scale from 0 to 100
[1] = test system: Setaria viridis
Source text: (§1) The seeds of the test plants were sown separately for each species. For the post-emergence treatment, the test plants were first grown to a height of 3 to 15 cm, depending on the plant habit, and only then treated with the active ingredients which had been suspended or emulsified in water. For this purpose, the test plants were either sown directly and grown in the same containers, or they were first grown separately as seedlings and transplanted into the test containers a few days prior to treatment. Depending on the species, the plants were kept at 10-25° C. or 20-35° C., respectively. The test period extended over 2 to 4 weeks. During this time, the plants were tended, and their response to the individual treatments was evaluated. Evaluation was carried out using a scale from 0 to 100. 100 means no emergence of the plants, or complete destruction of at least the aerial moieties, and 0 means no damage, or normal course of growth. A good herbicidal activity is given at values of at least 70 and a very good herbicidal activity is given at values of at least 85. The plants used in the greenhouse experiments were of the following species: [table]

[2] = test system: Chenopodium album
Source text: as §1

[3] = test system: Amaranthus retroflexus
Source text: as §1

Compound | herbicidal activity against Setaria viridis [1] | herbicidal activity against Chenopodium album [2] | herbicidal activity against Amaranthus retroflexus [3]
COC(Oc1cc(-c2ncc(C(F)(F)F)cc2Cl)c(F)cc1Cl)C(=O)OCC(F)F (racemic) [Example 20] | very good herbicidal activity (a very good herbicidal activity is given at values of at least 85) | very good herbicidal activity (a very good herbicidal activity is given at values of at least 85) | very good herbicidal activity (a very good herbicidal activity is given at values of at least 85)
COC(Oc1cc(-c2ncc(C(F)(F)F)cc2Cl)c(F)cc1Cl)C(=O)OCCCl (racemic) [Example 21] | very good herbicidal activity (a very good herbicidal activity is given at values of at least 85) | very good herbicidal activity (a very good herbicidal activity is given at values of at least 85) | very good herbicidal activity (a very good herbicidal activity is given at values of at least 85)
COC(Oc1cc(-c2ncc(C(F)(F)F)cc2Cl)c(F)cc1Cl)C(=O)OCC(Cl)Cl (racemic) [Example 22] | very good herbicidal activity (a very good herbicidal activity is given at values of at least 85) | very good herbicidal activity (a very good herbicidal activity is given at values of at least 85) | very good herbicidal activity (a very good herbicidal activity is given at values of at least 85)
COCCOC(=O)C(OC)Oc1cc(-c2ncc(C(F)(F)F)cc2Cl)c(F)cc1Cl (racemic) [Example 23] | very good herbicidal activity (a very good herbicidal activity is given at values of at least 85) | very good herbicidal activity (a very good herbicidal activity is given at values of at least 85) | very good herbicidal activity (a very good herbicidal activity is given at values of at least 85)
COCCCOC(=O)C(OC)Oc1cc(-c2ncc(C(F)(F)F)cc2Cl)c(F)cc1Cl (racemic) [Example 24] | very good herbicidal activity (a very good herbicidal activity is given at values of at least 85) | very good herbicidal activity (a very good herbicidal activity is given at values of at least 85) | very good herbicidal activity (a very good herbicidal activity is given at values of at least 85)
CCOCCOC(=O)C(OC)Oc1cc(-c2ncc(C(F)(F)F)cc2Cl)c(F)cc1Cl (racemic) [Example 25] | very good herbicidal activity (a very good herbicidal activity is given at values of at least 85) | very good herbicidal activity (a very good herbicidal activity is given at values of at least 85) | very good herbicidal activity (a very good herbicidal activity is given at values of at least 85)
COC(Oc1cc(-c2ncc(C(F)(F)F)cc2Cl)c(F)cc1Cl)C(=O)OCCOC(C)C (racemic) [Example 26] | very good herbicidal activity (a very good herbicidal activity is given at values of at least 85) | very good herbicidal activity (a very good herbicidal activity is given at values of at least 85) | very good herbicidal activity (a very good herbicidal activity is given at values of at least 85)
COC(=O)COC(=O)C(OC)Oc1cc(-c2ncc(C(F)(F)F)cc2Cl)c(F)cc1Cl (racemic) [Example 29] | very good herbicidal activity (a very good herbicidal activity is given at values of at least 85) | very good herbicidal activity (a very good herbicidal activity is given at values of at least 85) | very good herbicidal activity (a very good herbicidal activity is given at values of at least 85)
COC(Oc1cc(-c2ncc(C(F)(F)F)cc2Cl)c(F)cc1Cl)C(=O)OC1CCC1 (racemic) [Example 31] | very good herbicidal activity (a very good herbicidal activity is given at values of at least 85) | very good herbicidal activity (a very good herbicidal activity is given at values of at least 85) | very good herbicidal activity (a very good herbicidal activity is given at values of at least 85)
COC(Oc1cc(-c2ncc(C(F)(F)F)cc2Cl)c(F)cc1Cl)C(=O)OCC1CC1 (racemic) [Example 32] | very good herbicidal activity (a very good herbicidal activity is given at values of at least 85) | very good herbicidal activity (a very good herbicidal activity is given at values of at least 85) | very good herbicidal activity (a very good herbicidal activity is given at values of at least 85)
COC(Oc1cc(-c2ncc(C(F)(F)F)cc2Cl)c(F)cc1Cl)C(=O)OCC1CCC1 (racemic) [Example 33] | very good herbicidal activity (a very good herbicidal activity is given at values of at least 85) | very good herbicidal activity (a very good herbicidal activity is given at values of at least 85) | very good herbicidal activity (a very good herbicidal activity is given at values of at least 85)
COC(Oc1cc(-c2ncc(C(F)(F)F)cc2Cl)c(F)cc1Cl)C(=O)OCc1ccco1 (racemic) [Example 34] | very good herbicidal activity (a very good herbicidal activity is given at values of at least 85) | very good herbicidal activity (a very good herbicidal activity is given at values of at least 85) | very good herbicidal activity (a very good herbicidal activity is given at values of at least 85)
COC(Oc1cc(-c2ncc(C(F)(F)F)cc2Cl)c(F)cc1Cl)C(=O)OCc1ccccc1 (racemic) [Example 35] | very good herbicidal activity (a very good herbicidal activity is given at values of at least 85) | very good herbicidal activity (a very good herbicidal activity is given at values of at least 85) | very good herbicidal activity (a very good herbicidal activity is given at values of at least 85)
COC(=O)C(OC)Oc1cc(-c2ncc(C(F)(F)F)cc2Cl)c(F)cc1Cl (stereo not drawn) [Example 1, Methyl 2-[2-chloro-5-[3-chloro-5-(trifluoromethyl)-2-pyridyl]-4-fluoro-phenoxy]-2-methoxy-acetate] | very good herbicidal activity (a very good herbicidal activity is given at values of at least 85) | very good herbicidal activity (a very good herbicidal activity is given at values of at least 85) | very good herbicidal activity (a very good herbicidal activity is given at values of at least 85)
CCOC(Oc1cc(-c2ncc(C(F)(F)F)cc2Cl)c(F)cc1Cl)C(=O)O (stereo not drawn) [Example 2, 2-[2-chloro-5-[3-chloro-5-(trifluoromethyl)-2-pyridyl]-4-fluoro-phenoxy]-2-ethoxy-acetic acid] | very good herbicidal activity (a very good herbicidal activity is given at values of at least 85) | very good herbicidal activity (a very good herbicidal activity is given at values of at least 85) | very good herbicidal activity (a very good herbicidal activity is given at values of at least 85)
CCOC(=O)C(OCC)Oc1cc(-c2ncc(C(F)(F)F)cc2Cl)c(F)cc1Cl (stereo not drawn) [Example 3, Ethyl 2-[2-chloro-5-[3-chloro-5-(trifluoromethyl)-2-pyridyl]-4-fluoro-phenoxy]-2-ethoxy-acetate] | very good herbicidal activity (a very good herbicidal activity is given at values of at least 85) | very good herbicidal activity (a very good herbicidal activity is given at values of at least 85) | very good herbicidal activity (a very good herbicidal activity is given at values of at least 85)
CCOC(Oc1cc(-c2ncc(C(F)(F)F)cc2Cl)c(F)cc1Cl)C(=O)NS(C)(=O)=O (stereo not drawn) [Example 4, 2-[2-chloro-5-[3-chloro-5-(trifluoromethyl)-2-pyridyl]-4-fluoro-phenoxy]-2-ethoxy-N-methylsulfonyl-acetamide] | very good herbicidal activity (a very good herbicidal activity is given at values of at least 85) | very good herbicidal activity (a very good herbicidal activity is given at values of at least 85) | very good herbicidal activity (a very good herbicidal activity is given at values of at least 85)
CCOc1ccccc1OC(=O)C(OC)Oc1cc(-c2ncc(C(F)(F)F)cc2Cl)c(F)cc1Cl (stereo not drawn) [Example 36] | very good herbicidal activity (a very good herbicidal activity is given at values of at least 85) | very good herbicidal activity (a very good herbicidal activity is given at values of at least 85) | very good herbicidal activity (a very good herbicidal activity is given at values of at least 85)
